# Assay results from PubChem BioAssay AID1508600 (Functional Genomics Laboratory (NCATS/FGL), 2020).
# The whole screen tested about 53,000 sequences, of which about 3,700 (7%) were called active.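 Rule for the calls: active = gene knockdowns whose robust z-score for IL-1 alpha signal is at least 2 or at most -2, so actives lie on both sides; inactive = the rest.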 The list shows a part of the results.
# Assay: Components of the Cytosolic LPS Sensing Pathway: Gene Identification via Genome-wide siRNA Screen;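 note: robust z of the log signal after scaling to non-targeting control siRNA wells of the plate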
# Settings: RAW264.7 macrophages, IL-1a HTRF, actives lie on both sides, screened at 100 nM (by protocol), cells primed 5 h with Pam3CSK4 first
# Method in brief: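 Mouse macrophage line RAW264.7 is transfected with siRNA (100 nM final), grown 48h, primed with TLR ligand Pam3CSK4 5 h and given intracellular LipidA 24 h. IL-1a in supernatant is read by HTRF and viability by luminescence.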
row,Sequence,z-score
1,GCAGAAUGAGUUCAGACGATT against Mgmt,inactive: 0.36
2,GGAAGUAAUCAAUUUGGUGTT against Epm2aip1,inactive: 1.36
3,GCUUCAGCUCAACUCCGCATT against Vps33a,inactive: 0.214
4,GGCCUUGUAUCUCUUUACATT against Hdgf,inactive: 0.425
5,GGUCCAUCAUGAGGUCUCUTT against Phkg2,inactive: -1.59
6,GCAAAUAUAUGUUUGGCUGTT against Snap25,inactive: 0.892
7,CCCACUCCGAUAUACUGCUTT against Olfr447,active: 2.2
8,GGCACAAAAUGACUCCUAUTT against Tspear,inactive: -0.936
9,GGACCUGGUCACCAUCUUGTT against Tram2,inactive: -0.3
10,GGAUCAUAGUUACAAGGCUTT against L3mbtl2,inactive: 0.458
11,GGUCACCAAAGUGAAAACATT against Ndufa8,inactive: -0.187
12,GGUCUAUCCCAUCAUGCCUTT against Clcnka,inactive: 0.583
13,GCAGGCGAUAUAGAAGCAATT against Frg1,inactive: 0.475
14,CCAUUCAUUUAACCUUUCATT against Acot11,inactive: -0.814
15,GGAGUUCAGCAACCUGUUGTT against Tmem97,active: -2.08
16,GGAGCUACGAGGAAUUGGUTT against Brwd1,inactive: 0.062
17,GCUGCAUCCGUAGAUGUUGTT against Aldh1l1,inactive: 0.208
18,GGAGAACUGCUUCCACAUGTT against Clec4a3,inactive: 0.418
19,GGAACACCAUCAUCAGUCATT against Ephb2,inactive: -0.448
20,GGCACAAUUUCUUUGAAUCTT against Ophn1,inactive: 0.885
21,AGCCUUCUUACCACAAGUUTT against Nlrp4e,inactive: 0.103
22,GGAGCUACGAAGAGGAUCUTT against Wdr45b,active: -2.69

row,Sequence,z-score
1,GCAAAGAUCUUUGAGUAAGTT against 4632415L05Rik,inactive: -1.29
2,GGCCAUGAUUGAGAAGCUATT against Smtn,inactive: -1.33
3,GCGUGUAUCUAGUGAAAUUTT against 4930524B15Rik,inactive: 1.28
4,GGUGAAGCUGAAGAAGUACTT against Chst12,inactive: 0.975
5,GGAGAAAAAGGGAAAGAAUTT against Dlx4,inactive: 0.0644
6,CUACUCAGGACAUGUCUCATT against Draxin,inactive: 0.0683
7,GCUGUCAGACUAAAGAUAUTT against Mmd,inactive: -0.733
8,GCCAGAAAGAUUCCUUCCUTT against Olfr1419,inactive: 0.541
9,GGGUACACUCCAUGCUUAGTT against Tcap,inactive: -1.1
10,GUCUUGACAUUAGUACUCATT against Olfr1408,inactive: -0.32
11,GGUGGACAUUCCUAAGAUUTT against Ago1,inactive: -0.97
12,GGUCAAAGUUUGAUGUUAGTT against Tll2,inactive: -1.73
13,GGUCAAAUUCUUUGACCUATT against Tesk2,inactive: 0.512
14,GGUGAUUGUCCGGUUCGGUTT against Tmem51,inactive: -0.757
15,GCAGAAAAAUCCUCUUACATT against Sp6,inactive: 1.2
16,CCAGCAAUAAUGAAAAGACTT against Samd8,inactive: 1.03
17,CGAGAUUGUGCUGAUAGAGTT against Nptx2,inactive: 0.533
18,GGCAAGAGCAUCCUUACAGTT against Fah,inactive: -0.562
19,CCAAGAUCGAUCAUUUUGGTT against Gm527,inactive: -0.794
20,GCCUAUAAGGAAUAACAAGTT against Cerkl,inactive: 1.27
21,GGCACAGGUUUUCCAAGGUTT against Rp1l1,inactive: -0.635
22,GGUUCAAAUGGUCAAAUUCTT against Pcdha10,inactive: 0.447

row,Sequence,z-score
1,GGAAGAUGGGCAAGAUGAUTT against Sash3,inactive: -0.183
2,GGUCAAAAUGACCAAGGAUTT against Acot1,inactive: -1.41
3,GCAGAUACGACGAAGAUCUTT against Pithd1,inactive: -0.958
4,GGAAAGUUCCCAUGUUCUCTT against Mgat4f,inactive: 1.33
5,CGCCACACACCAUCACAUUTT against Scap,inactive: -0.0743
6,GGUUGACUGAAGUAAUAGCTT against Nemf,inactive: -1.56
7,GCUUCCUGAUGGACGGACUTT against Actl9,inactive: 0.366
8,GGAAGGAUGGAGCAAAGCCTT against Tsfm,inactive: -0.214
9,GGGUCACGUGCUGUCUCAUTT against Slc22a20,inactive: -1.55
10,GGGUCACACUUCAUGGCUUTT against Pofut1,active: -2.07
11,GGGUAUGCAAAAAUGGUUGTT against Csnk2a2,inactive: 1.13
12,UAUAGAACAUGCCAAAUUGTT against Adam26a,inactive: 1.49
13,GGUGUCAGGAUUUUAUAACTT against Etfbkmt,inactive: -0.182
14,CCUCAUUUCAUUGUCUAGUTT against Kank2,inactive: -0.388
15,GGAGCAUGCUGGUCUUAGUTT against Bmp10,inactive: -0.197
16,GGUUCAACACGAUGUUCGATT against Nr1i2,inactive: 0.162
17,GAGAAAGAUAAUUACCUGGTT against Tnfrsf22,inactive: 0.552
18,CCUUCAACACCAGUUUGGGTT against Olfr1393,inactive: 0.45
19,GGUAAAGAUGAAAAUGUGUTT against Fut9,inactive: -0.311
20,GGAGGAACACAAGAUUUUCTT against Ppp2r5c,inactive: -0.322
21,GGUAACAUGGUUUUAACAGTT against Tmem200a,inactive: -0.0515
22,GGAUUCUGUAGGUCUUCCUTT against Defb19,inactive: 0.9

row,Sequence,z-score
1,GGACCUUAAUUGCAUCAUUTT against Mapk3,inactive: 1.88
2,GGGAAGGAUGUGCUUAUGATT against Rab38,inactive: -1.09
3,GGUACAUUUCAACCACAUUTT against Lnx1,inactive: 1.91
4,GCUACGACUCGGAUGAUACTT against Doc2a,inactive: -0.682
5,GGAACAGAAUACAAAAAAGTT against Syap1,inactive: -0.266
6,CCCUCUUAGUAACUGGCUCTT against Cdhr4,inactive: -0.0846
7,GCUGAAAUAGUUGCUAAAUTT against Usp6nl,inactive: 0.443
8,GGUUGAAAUAGAGAUCAUATT against Tmprss11g,inactive: -0.43
9,GGACAAGCAAUAACUCUACTT against Mapkapk2,inactive: 1.44
10,GGUAGUGAAGUUCUCCUACTT against Spop,inactive: 0.256
11,CCUUGUUAUUAGGAACUCUTT against Xpo7,inactive: 1.96
12,GGAAGACAGCAUGUGGACATT against Ghrh,inactive: -1.32
13,GGAAGCCUUUUGAUGACGCTT against Gsta3,inactive: -1.46
14,GGCAUGAUGCUGAUCAUUCTT against Olfr1100,inactive: -0.0763
15,GGCAUUAUUAAAAGUGUGATT against Psmd9,inactive: 0.208
16,GCUGUCUAAUGUCAAUUCUTT against Txnrd1,inactive: 0.258
17,GGGAUGAUGCCAAAUAUAUTT against Kl,inactive: 1.29
18,GGUGCCUAGUUUGUGGAUATT against Gatd3a,inactive: 0.542
19,GCUGUUGGUUGAGCCUGAATT against Ager,inactive: -0.29
20,GGAGUAUGGUAUCAACCCGTT against Pgp,inactive: -0.15
21,GGAGAAAGACAAGGAAAAUTT against Clk3,inactive: -1.56
22,CCCAUCAAUAUCAUAUCCATT against Car7,active: -2.34

# Looked up above.
# GGAUCAUAGUUACAAGGCUTT against L3mbtl2 – z-score: inactive: 0.458
# GGGUCACACUUCAUGGCUUTT against Pofut1 – z-score: active: -2.07
# GGUGGACAUUCCUAAGAUUTT against Ago1 – z-score: inactive: -0.97
# GCCUAUAAGGAAUAACAAGTT against Cerkl – z-score: inactive: 1.27

# Next records.

row,Sequence,z-score
1,GGUUUUCAAAGUCUUUUACTT against Pptc7,inactive: 0.853
2,GGAAAUCAAGAAAGCACAGTT against Guk1,inactive: 0.244
3,GGCAGUCAAAUUUAUAGUATT against Ckap4,inactive: 0.32
4,GCUAUCUAGAGCCAAGAGCTT against Bahcc1,active: 2.27
5,GCACCCUACCUGCUAAUGUTT against Slitrk1,active: 3.59
6,GGAAUUGGAUUCAGUUUACTT against Ppp3ca,inactive: 1.97
7,GCGACAUCUCUCAAGCUUATT against Carmil3,inactive: 0.555
8,GGCAAUAUCCGGUUUUUAGTT against Sema6d,inactive: 0.551
9,GGCAGCAUGAAAGAAAAAATT against Eme1,inactive: -0.307
10,GCGAGUGAAAAACCAAGGCTT against Loxl1,inactive: -0.797
11,GCUCAGACAAGAAUUGCUATT against Specc1,inactive: -0.612
12,GGAAUUCUCCAGAAAGCUCTT against Atrip,inactive: -0.855
13,GGCCAUGUGGUUCCUGCUUTT against Scnn1b,inactive: -1.67
14,GGACAUUUUUAUUAGUGGATT against Gtpbp8,inactive: 1.04
15,CGUAAAACUCUUAGGCAUGTT against Npm1,inactive: 1.13
16,GGAAUUCAAGGAUCGAUCUTT against Tnfrsf19,inactive: -0.188
17,GGUCACGACUCUUCAUGAUTT against Nrl,inactive: -1.79
18,CGACAAACCCAAGAUCACGTT against Slc32a1,inactive: -0.439
19,GCCAAGAAGUCGGUGGACATT against Cebpa,inactive: -0.399

# In a second layout: entries from further up.
row	Sequence	z-score
16	GGAAUUCAAGGAUCGAUCUTT against Tnfrsf19	inactive: -0.188
17	GGUCACGACUCUUCAUGAUTT against Nrl	inactive: -1.79
